The target of assay [1] is T1, EMB1270 (yeast two-hybrid fusion, transit peptide removed) (Arabidopsis thaliana) (UniProt Q5G1S8).
T1 sequence: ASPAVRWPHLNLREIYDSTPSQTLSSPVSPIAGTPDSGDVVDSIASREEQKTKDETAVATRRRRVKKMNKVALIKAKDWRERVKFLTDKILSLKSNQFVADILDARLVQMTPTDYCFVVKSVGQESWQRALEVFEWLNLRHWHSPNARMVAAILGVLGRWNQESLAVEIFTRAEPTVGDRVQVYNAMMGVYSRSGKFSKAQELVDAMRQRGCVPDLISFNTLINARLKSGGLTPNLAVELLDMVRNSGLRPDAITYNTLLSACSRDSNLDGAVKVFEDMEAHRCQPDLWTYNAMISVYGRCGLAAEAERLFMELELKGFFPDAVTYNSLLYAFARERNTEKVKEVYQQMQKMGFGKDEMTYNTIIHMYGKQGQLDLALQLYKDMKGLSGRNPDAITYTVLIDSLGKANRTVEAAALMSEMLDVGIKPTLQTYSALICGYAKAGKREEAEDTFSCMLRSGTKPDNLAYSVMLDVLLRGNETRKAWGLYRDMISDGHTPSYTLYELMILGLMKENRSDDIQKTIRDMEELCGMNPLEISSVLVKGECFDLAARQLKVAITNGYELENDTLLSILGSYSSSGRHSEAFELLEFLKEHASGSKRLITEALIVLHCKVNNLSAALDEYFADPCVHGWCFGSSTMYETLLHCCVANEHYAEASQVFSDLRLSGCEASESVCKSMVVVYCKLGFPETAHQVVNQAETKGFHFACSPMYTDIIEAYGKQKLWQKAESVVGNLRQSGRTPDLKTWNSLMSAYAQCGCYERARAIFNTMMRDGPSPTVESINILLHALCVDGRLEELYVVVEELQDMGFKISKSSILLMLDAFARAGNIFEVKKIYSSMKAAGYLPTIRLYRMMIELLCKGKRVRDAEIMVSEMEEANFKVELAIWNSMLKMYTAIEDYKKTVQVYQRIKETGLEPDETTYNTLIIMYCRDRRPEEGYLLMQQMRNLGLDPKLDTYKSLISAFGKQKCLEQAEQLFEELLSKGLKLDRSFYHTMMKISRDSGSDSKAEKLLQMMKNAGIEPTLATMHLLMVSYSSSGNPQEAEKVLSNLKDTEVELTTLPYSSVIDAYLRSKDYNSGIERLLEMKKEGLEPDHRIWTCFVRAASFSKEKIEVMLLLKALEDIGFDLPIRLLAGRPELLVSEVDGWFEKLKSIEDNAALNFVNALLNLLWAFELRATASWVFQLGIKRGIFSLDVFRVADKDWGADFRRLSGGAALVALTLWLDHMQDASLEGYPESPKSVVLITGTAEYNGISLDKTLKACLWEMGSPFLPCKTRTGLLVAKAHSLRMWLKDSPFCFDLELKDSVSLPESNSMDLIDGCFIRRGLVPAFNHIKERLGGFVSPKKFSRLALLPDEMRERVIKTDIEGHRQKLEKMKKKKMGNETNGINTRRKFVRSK
The assay can be described thus: two-hybrid.

In assay [2] the target is T2, EMB1270 fused to C-terminal luciferase (EMB1270-cLUC) (Arabidopsis thaliana) (UniProt Q5G1S8).
T2 sequence: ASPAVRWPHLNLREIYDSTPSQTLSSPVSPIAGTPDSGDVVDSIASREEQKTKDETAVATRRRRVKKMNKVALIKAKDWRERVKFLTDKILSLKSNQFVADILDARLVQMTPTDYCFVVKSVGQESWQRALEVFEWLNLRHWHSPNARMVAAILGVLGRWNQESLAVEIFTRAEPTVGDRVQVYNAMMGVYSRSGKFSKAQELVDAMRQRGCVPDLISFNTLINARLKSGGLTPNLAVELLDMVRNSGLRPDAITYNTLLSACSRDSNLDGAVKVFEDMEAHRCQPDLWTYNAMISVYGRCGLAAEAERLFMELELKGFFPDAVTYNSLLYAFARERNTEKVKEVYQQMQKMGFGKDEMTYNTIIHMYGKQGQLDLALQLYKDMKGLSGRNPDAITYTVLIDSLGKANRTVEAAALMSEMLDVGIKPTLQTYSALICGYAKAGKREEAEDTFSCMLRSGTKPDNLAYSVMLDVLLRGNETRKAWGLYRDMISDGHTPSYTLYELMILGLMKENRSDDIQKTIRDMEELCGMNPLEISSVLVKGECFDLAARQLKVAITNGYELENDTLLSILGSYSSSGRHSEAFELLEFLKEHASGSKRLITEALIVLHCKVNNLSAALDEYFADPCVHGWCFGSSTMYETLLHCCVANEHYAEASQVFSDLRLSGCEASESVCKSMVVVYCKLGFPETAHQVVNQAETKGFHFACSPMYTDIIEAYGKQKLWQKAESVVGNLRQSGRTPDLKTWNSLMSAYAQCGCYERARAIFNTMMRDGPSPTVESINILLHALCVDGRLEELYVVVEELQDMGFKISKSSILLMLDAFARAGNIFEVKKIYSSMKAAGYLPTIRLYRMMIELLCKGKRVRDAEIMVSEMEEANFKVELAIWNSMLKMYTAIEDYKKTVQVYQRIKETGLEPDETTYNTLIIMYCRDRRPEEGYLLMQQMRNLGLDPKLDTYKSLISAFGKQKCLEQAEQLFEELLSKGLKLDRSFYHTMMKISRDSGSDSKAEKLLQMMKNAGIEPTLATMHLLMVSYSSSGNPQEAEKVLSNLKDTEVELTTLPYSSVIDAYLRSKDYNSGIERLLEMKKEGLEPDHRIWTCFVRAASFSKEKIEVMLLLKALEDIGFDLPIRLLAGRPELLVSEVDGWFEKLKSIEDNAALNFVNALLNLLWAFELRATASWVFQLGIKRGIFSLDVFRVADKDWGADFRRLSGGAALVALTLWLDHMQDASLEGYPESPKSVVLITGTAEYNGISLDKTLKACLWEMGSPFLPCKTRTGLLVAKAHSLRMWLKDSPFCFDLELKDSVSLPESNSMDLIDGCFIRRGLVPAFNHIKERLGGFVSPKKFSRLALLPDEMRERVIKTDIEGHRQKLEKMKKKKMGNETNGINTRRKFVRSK
Kind of assay: split reporter.

No constants are given. Whether binding was seen depends on the method and setting. For some assays here: In cells and extracts the contact can be indirect. Some results given as binding are weak or reduced against the parent protein; the word gives no strength. Where a sequence is shown, tags or fusion partners need not be part of it.

B1: EMB1006-CT (EMB1006 amino acids 273-724, 11 PPR motifs) (domain or fragment, UniProt Q9FGR7 273-723)
chain: VRLYNAAISGLSASQRYDDAWEVYEAMDKINVYPDNVTCAILITTLRKAGRSAKEVWEIFEKMSEKGVKWSQDVFGGLVKSFCDEGLKEEALVIQTEMEKKGIRSNTIVYNTLMDAYNKSNHIEEVEGLFTEMRDKGLKPSAATYNILMDAYARRMQPDIVETLLREMEDLGLEPNVKSYTCLISAYGRTKKMSDMAADAFLRMKKVGLKPSSHSYTALIHAYSVSGWHEKAYASFEEMCKEGIKPSVETYTSVLDAFRRSGDTGKLMEIWKLMLREKIKGTRITYNTLLDGFAKQGLYIEARDVVSEFSKMGLQPSVMTYNMLMNAYARGGQDAKLPQLLKEMAALNLKPDSITYSTMIYAFVRVRDFKRAFFYHKMMVKSGQVPDPRSYEKLRAILEDKAKTKNRKDKTAILGIINSKFGRVKAKTKGKKDEFWKYKTNRTTSPGRHRS
Turning to B1, the binding result in assay [1] is reported as “no binding”.

B2: CFM2 fused to N-terminal luciferase (CFM2-nLUC) (protein, UniProt Q8L7C2 46-1011)
chain: CSSASGRKTLPQSAIQRIAEKLRSLGFVEEKHDSPTRRITGEESGKNSPGEIFVPLPKQLPIHRVGHTIDTSWSTPSYPVPKPGSGTAISRYHELKRVWKKETEMERKKEEKVPSLAELTLPPAELRRLRTVGIRLTKKLKIGKAGITEGIVNGIHERWRTTEVVKIFCEDISRMNMKRTHDVLETKTGGLVIWRSGSKILLYRGVNYQYPYFVSDRDLAHEAASGASSMDQGVVDSREKQSIAESSAPSITNKMVKPMLTQGVGSPDKVRFQLPGEVQLVEEADRLLEGLGPRFTDWWAYDPLPVDGDLLPAVVPDYRRPFRLLPYGVSPKLTDDEMTTIRRLGRPLPCHFALGRNRNLQGLAVAIVKLWEKCELAKIAVKRGVQNTNSELMAEELKWLTGGTLISRDKDFIVLYRGKDFLPSAVSSAIEERRRQTMIMENSSVHGNKLTENEEEIKPRAVKEDIELEAKDQKDHIQTHQMKSRQRNSPEAILEKTSMKLSMALEKKANAEKVLADLENRESPQLSDIDKEGITNDEKYMLRKIGLKMKPFLLLGRRGVFDGTIENMHLHWKYRELVKIICNEYSIEAAHKVAEILEAESGGILVAVEMVSKGYAIIVYRGKNYERPQCLRPQTLLSKREALKRSVEAQRRKSLKLHVLKLSNNIEELNRQLVEDSATNETWSDGESSNMMVEEETENQHTEPEKAREKIELGYSSDLSVPSSGEENWEDDSEGEVDPLTTSSQEYQEDESESASSQRHEGNSLDSTANLSVFAETGSANASSFHDRSLPHNSFLNANRKLPGSSTGSGSQISALRERKSENDGLVTDLSNRERLILRKQALKMKKRPPFAVGRSNVVTGLARTLKMHFQKNPLAIVNVKGRANGTSVQEVIAKLKEETGALLVSQEPSKVILYRGWGAEEEMKSFYPNNNVKSSINLPSTRSFVDDPPHVSPALIEAIRLECGL
For B2, the binding result in assay [2] was “binds”.

These data come from paper doi:10.1101/2023.12.07.570680.
